Results on 1 molecule are retold here after paper PMC8576330.

The test has as its target Yes-Associated Protein (YAP), endogenous (human (endogenous in HOS, MG63, G292, K-HOS)), P46937. The test can be described thus: proximity ligation; in situ Duolink PLA on fixed osteosarcoma cells (HOS, MG63, G292; mock-, YAPS94A- and YAPS127A-stably transfected K-HOS) with antibodies against YAP and Smad3, in the presence or absence of TGF-β1 (5 ng/ml, 45 min in the methods, 1 h in the legend). Conditions: remark: other sources report otherwise.

Results are given in words; binding and its absence hold for the method and conditions named. In cells and extracts the contact can be indirect. Some binding calls cover weakened binding; strength is not graded here.

B1: Smad3, endogenous, P84022 1-425 (protein)
chain: MSSILPFTPPIVKRLLGWKKGEQNGQEEKWCEKAVKSLVKKLKKTGQLDELEKAITTQNVNTKCITIPRSLDGRLQVSHRKGLPHVIYCRLWRWPDLHSHHELRAMELCEFAFNMKKDEVCVNPYHYQRVETPVLPPVLVPRHTEIPAEFPPLDDYSHSIPENTNFPAGIEPQSNIPETPPPGYLSEDGETSDHQMNHSMDAGSPNLSPNPMSPAHNNLDLQPVTYCEPAFWCSISYYELNQRVGETFHASQPSMTVDGFTDPSNSERFCLGLLSNVNRNAAVELTRRHIGRGVRLYYIGGEVFAECLSDSAIFVQSPNCNQRYGWHPATVCKIPPGCNLKIFNNQEFAALLAQSVNQGFEAVYQLTRMCTIRMSFVKGWGAEYRRQTVTSTPCWIELHLNGPLQWLDKVLTQMGSPSIRCSSVS
For B1, the binding entry is on record as “binds”.
